For at least one entry, the source does not settle the construct or the ends of the probe. Results from cells or extracts need not show a direct contact. Weaker means in comparison with the reference protein, sequence or condition of that experiment. At least one verdict was read from the data and is not stated in words by the source.

By UniProt entry, the sequences of proteins in these tests, tags left out. Residues count along the entry.
UniProt P40763, 2-770: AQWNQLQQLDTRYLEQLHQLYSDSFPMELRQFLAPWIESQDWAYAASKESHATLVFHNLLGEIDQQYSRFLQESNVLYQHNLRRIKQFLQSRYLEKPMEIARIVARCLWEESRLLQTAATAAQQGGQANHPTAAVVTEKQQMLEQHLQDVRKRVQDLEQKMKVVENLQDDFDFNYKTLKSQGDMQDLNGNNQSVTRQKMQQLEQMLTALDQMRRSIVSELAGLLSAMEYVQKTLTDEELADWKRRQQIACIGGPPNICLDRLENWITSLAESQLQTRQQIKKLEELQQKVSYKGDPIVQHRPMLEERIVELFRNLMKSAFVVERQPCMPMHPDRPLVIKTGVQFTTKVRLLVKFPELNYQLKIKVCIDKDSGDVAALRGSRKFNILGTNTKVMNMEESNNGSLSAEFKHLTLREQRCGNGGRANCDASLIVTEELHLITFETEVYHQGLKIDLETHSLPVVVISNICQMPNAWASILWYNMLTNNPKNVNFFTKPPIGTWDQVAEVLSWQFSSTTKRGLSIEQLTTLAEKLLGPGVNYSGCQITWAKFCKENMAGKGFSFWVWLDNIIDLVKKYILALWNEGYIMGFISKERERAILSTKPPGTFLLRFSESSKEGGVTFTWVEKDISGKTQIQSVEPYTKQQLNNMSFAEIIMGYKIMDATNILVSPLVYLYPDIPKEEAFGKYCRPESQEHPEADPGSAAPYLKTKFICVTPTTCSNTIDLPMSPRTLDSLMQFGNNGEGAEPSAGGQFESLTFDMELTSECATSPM

In the data set the target is STAT3 (endogenous, U266 nuclear extract, IL-6 stimulated) (UniProt P40763). Kind of data set: EMSA. The following applies: 5 ug nuclear extract, 1 ug poly(dI:dC), 4% native PAGE, antibody 25 min at room temperature, buffer composition, salt and pH not stated, protein in an extract, label: biotin 3' end.

Regarding “GATCCTTCTGGGAATTCCTAGATC (double strand) [STAT3 element probe, wild type]”, the binding result runs as follows: (IL-6 20 ng/ml 30 min, no YL064) “binds”; (cells pretreated with YL064 24 h, then IL-6 20 ng/ml 30 min) “binds more weakly”.
